Results are given in words; binding and its absence hold for the method and conditions named. In cells and extracts the contact can be indirect. Some results given as binding are weak or reduced against the parent protein; the word gives no strength. Tags and fused reporters may be left off the sequences shown.
Target: Flag-tagged MAVS C283A (UniProt Q7Z434)
Assay: co-IP

Chains of the proteins cited; added tags and fusions are not shown. Lines headed by an entry give the natural chain unless they say otherwise; changes in a name come on top.
UniProt Q7Z434: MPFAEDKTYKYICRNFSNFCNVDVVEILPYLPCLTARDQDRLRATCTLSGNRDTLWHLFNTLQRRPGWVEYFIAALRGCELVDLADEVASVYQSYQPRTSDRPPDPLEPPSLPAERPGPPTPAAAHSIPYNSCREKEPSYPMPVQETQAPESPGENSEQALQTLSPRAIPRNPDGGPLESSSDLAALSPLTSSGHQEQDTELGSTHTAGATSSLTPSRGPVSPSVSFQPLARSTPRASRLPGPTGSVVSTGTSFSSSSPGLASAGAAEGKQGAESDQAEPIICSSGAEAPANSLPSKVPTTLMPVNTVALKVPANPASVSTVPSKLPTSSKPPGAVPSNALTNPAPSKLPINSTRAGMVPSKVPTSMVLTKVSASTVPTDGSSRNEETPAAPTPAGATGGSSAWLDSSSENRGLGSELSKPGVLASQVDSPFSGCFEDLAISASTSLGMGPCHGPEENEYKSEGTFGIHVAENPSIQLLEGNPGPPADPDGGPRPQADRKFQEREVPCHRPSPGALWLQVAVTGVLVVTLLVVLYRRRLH

B1: GFP-tagged TBK1 (enzyme, UniProt Q9UHD2 1-729)
chain: MQSTSNHLWLLSDILGQGATANVFRGRHKKTGDLFAIKVFNNISFLRPVDVQMREFEVLKKLNHKNIVKLFAIEEETTTRHKVLIMEFCPCGSLYTVLEEPSNAYGLPESEFLIVLRDVVGGMNHLRENGIVHRDIKPGNIMRVIGEDGQSVYKLTDFGAARELEDDEQFVSLYGTEEYLHPDMYERAVLRKDHQKKYGATVDLWSIGVTFYHAATGSLPFRPFEGPRRNKEVMYKIITGKPSGAISGVQKAENGPIDWSGDMPVSCSLSRGLQVLLTPVLANILEADQEKCWGFDQFFAETSDILHRMVIHVFSLQQMTAHKIYIHSYNTATIFHELVYKQTKIISSNQELIYEGRRLVLEPGRLAQHFPKTTEENPIFVVSREPLNTIGLIYEKISLPKVHPRYDLDGDASMAKAITGVVCYACRIASTLLLYQELMRKGIRWLIELIKDDYNETVHKKTEVVITLDFCIRNIEKTVKVYEKLMKINLEAAELGEISDIHTKLLRLSSSQGTIETSLQDIDSRLSPGGSLADAWAHQEGTHPKDRNVEKLQVLLNCMTEIYYQFKKDKAERRLAYNEEQIHKFDKQKLYYHATKAMTHFTDECVKKYEAFLNKSEEWIRKMLHLRKQLLSLTNQCFDIEEEVSKYQEYTNELQETLPQKMFTASSGIKHTMTPIYPSSNTLVEMTLGMKKLKEEMEGVVKELAENNHILERFGSLTMDGGLRNVDCL
With B1 the binding was “binds”.

— paper PMC11096414
